In article PMC11665553, “12-Lipoxygenase inhibition delays onset of autoimmune diabetes in human gene replacement mice” (JCI Insight, 2024):

How the values were obtained:
[1] = tested on: BMDMs from NOD.hALOX12 mice; assay: RNA sequencing of M0 and M1-like polarized BMDMs; type: cell-based, mouse; details: 10 μM
From the text: BMDMs were unpolarized (M0) or polarized to an M1-like state (with lipopolysaccharide and IFN-γ) to mimic the inflammatory state that might be observed during T1D pathogenesis.
These common genes mapped to pathways related to cytokine-mediated signaling, T cell activation, and antigen processing and presentation (Supplemental Figure 3B). […] The 507 genes altered with vehicle treatment mapped to GO pathways related to the M1 polarization phenotype (myeloid cell differentiation, immune response, response to cytokines) and pathways related to oxidative stress (cell redox homeostasis, response to hydrogen peroxides) (Figure 5E). These pathways were not identified in the genes that were differentially expressed during VLX-1005 treatment.
BMDMs were isolated from 8-week-old NOD.hALOX12 mice as described previously ([2]). The isolated BMDMs were cultured for 7 days in complete medium (RPMI 1640 containing 10% FBS, 10 mM HEPES, and 100 U/mL penicillin/streptomycin) supplemented with 10 ng/mL M-CSF. […] After 1-hour pretreatment, the BMDMs were further stimulated with 10 ng/mL LPS and 25 ng/mL IFN-γ for 18 hours for M1-like polarization. RNA was isolated and used for sequencing.
RNA extraction was performed using RLT Buffer, according to the manufacturer’s instructions (Qiagen). Samples were submitted for library generation and sequencing by the University of Chicago sequencing core using a NovaSeq 6000 (Illumina). Data were analyzed using Galaxy (https://usegalaxy.org/). Reads were aligned to the Mus musculus genome build mm10 using HISAT2 (https://daehwankimlab.github.io/hisat2/). Individual sample reads were quantified using HTseq-count and normalized using DESeq2 (https://bioconductor.org/packages/release/bioc/html/DESeq2.html). DEseq2 was also used to calculate FCs and P values and to perform optional covariate correction. GO was used for pathway analysis.

[2] = tested on: islets from NOD.hALOX12 mice; assay: RNA sequencing of islets isolated from treated NOD.hALOX12 mice; type: in vivo, mouse

## COc1cccc(CNc2ccc(S(=O)(=O)Nc3nc4ccccc4s3)cc2)c1O [VLX-1005]
[1]; FC > 2 and P < 0.05
  Additional genes significantly altered in M0 to M1 transition with treatment only: 459 genes
  Fraction of genes significantly altered in M0 BMDMs vs vehicle: 1%
[1]; FC > 2 and P < 0.05, out of 15,888
  Genes significantly altered in M0 BMDMs vs vehicle: 159 genes
[2]; FDR less than 0.05 and FC greater than 2
  Differentially expressed genes in islets vs vehicle: 189 genes
[2]; P-value cutoff 0.05 and FC greater than 2
  Genes changed in islets vs vehicle: 709 genes
